Earlier results as cited in US20100028839A1, “METHODS AND SYSTEMS FOR EVALUATING MEMORY AGENTS” (priority 2008, published 2010).
At least one compound was matched to its structure with a doubt left.

System: mice lacking both adenylate cyclase 1 (AC1) and AC8 enzymes
Details: administration to area CA1 of the hippocampus; cited from earlier work

For `C=C[C@@]1(C)CC(=O)[C@]2(O)[C@@]3(C)[C@@H](O)CCC(C)(C)[C@@H]3[C@H](O)[C@H](OC(C)=O)[C@@]2(C)O1` [forskolin], the “learning and memory of hippocampal-dependent tasks” value is given as “restores”.
